In publication PMC8523720:
These are yes or no findings as the source states them, for the method shown. In cells and extracts the contact can be indirect. Some binding calls cover weakened binding; strength is not graded here.

Target: GRP78 (human (endogenous in Huh7)), P11021
Experiment: co-IP; immunoprecipitates from lysates of sorafenib-resistant Huh7 cells, endogenous proteins, immunoblot; GRP78-IRE1α tested with or without RCN1 silencing
Settings: remark: other sources report otherwise

binding: binds
B1: Reticulocalbin 1 (RCN1), Q15293 30-331 (protein)
chain: KPTVRKERVVRPDSELGERPPEDNQSFQYDHEAFLGKEDSKTFDQLTPDESKERLGKIVDRIDNDGDGFVTTEELKTWIKRVQKRYIFDNVAKVWKDYDRDKDDKISWEEYKQATYGYYLGNPAEFHDSSDHHTFKKMLPRDERRFKAADLNGDLTATREEFTAFLHPEEFEHMKEIVVLETLEDIDKNGDGFVDQDEYIADMFSHEENGPEPDWVLSEREQFNEFRDLNKDGKLDKDEIRHWILPQDYDHAQAEARHLVYESDKNKDEKLTKEEILENWNMFVGSQATNYGEDLTKNHDEL
